Our source for the odor description values is US11098266B2, “Organic compounds” (Givaudan SA, priority 2017, dated 2021).

The series is described as follows: Olfactory description of the olfactorily pure product. Conditions: olfactorily pure product after distillation.
On to `COC(=O)OCCc1ccccc1` [Example 3, methyl phenethyl carbonate], for which the odor description entry is reported as “rosy-floral odor with a slight mushroom facet”. Under `COC(=O)OC/C=C(\C)CCC=C(C)C` [Example 2, (E)-3,7-dimethylocta-2,6-dien-1-yl methyl carbonate] stands “fruity-rosy odor with a pear facet”. For `COC(=O)OCCC(C)CCC=C(C)C` (racemic) [Example 1, 3,7-dimethyloct-6-en-1-yl methyl carbonate], the odor description entry is “fruity-rosy odor with hints of pear and citronella”. In the case of `C=C(C)CCCC(C)CCOC(=O)OC` (centres unmarked) [Example 4, 3,7-dimethyloct-7-en-1-yl methyl carbonate], the odor description entry is “fruity-rosy odor with pear and banana connotations”. Under `COC(=O)OC/C=C(\C)CCC=C(C)C` [Example 7, (E,Z)-3,7-dimethylocta-2,6-dien-1-yl methyl carbonate] stands “fruity, floral, rosy odour”.
